Reference: patent US4332787A, “Assay for beta-adrenergic antagonists and antibody therefor” (The Massachusetts General Hospital, priority 1980, dated 1982)
Read-outs that look alike come from different tables or passages of the source. At least one compound was matched to its structure with a doubt left.

Legend:
[1] = test system: beta-adrenergic receptor; details: metabolite of propranolol, result in words, cited from earlier work
[2] = test system: antibody (antiacebutolol amine immune serum); experiment: Competitive binding inhibition of 3H-(-)-propranolol to anti-acebutolol amine antibody (radioimmunoassay); set-up: species or system rabbit; details: FIG. 1; result in words
Experimental: Acebutolol amine having the formula: [drawing 3] was covalently linked to lysozyme. 150 mg of acebutolol amine was dissolved in 1.0 N HCl and was cooled to 0° C. in a salt ice bath. To this solution was added 1 cc of 0.5 M NaNO2 also at 0° C. and the resultant mixture was allowed to stand at 0° C. for 10 min. A mixture of 200 mg crystalline lysozyme in 15% aqueous sodium carbonate at 0° C. was added to 2.0 cc of the above mixture. […] The resultant product was dialyzed against phosphate buffered saline and the purified conjugate was frozen in dry ice-acetone and stored at -20° C. The product then was thawed and centrifuged for 10 min at 3000 rpm. The supernatant was recovered and mixed with Tris buffer, pH 7 at a concentration of 30 mg/ml.
Albino rabbits were immunized with this conjugate at monthly intervals for four months. Each rabbit received intracutaneous toepad injections of 0.5 mg of protein emulsified in complete Freund's adjuvant.
The assays were performed in triplicate. […] For each determination, an identical volume of preimmune serum was assayed as a control for antibody binding. […] Bound radioactivity was counted in the presence of 10 ml of Aquasol-2 (New England Nuclear) in a Packard Tricarb liquid scintillation counter with a counting efficiency of 40%. […]

SMILES | biological activity at the beta-adrenergic receptor [1] | biological activity at the beta-adrenergic receptor ([1]; listed as Naphthoxylactic acid) | inhibition of 3H-propranolol binding to the antibody [2]
O=C(O)C(O)COc1cccc2ccccc12 (stereo not drawn) [naphthoxylactic acid] | pharmacologically inactive | bears no biological activity | –
O=C(O)COc1cccc2ccccc12 [naphthoxyacetic acid] | – | – | does not measurably inhibit binding
